PubChem BioAssay AID1508597 | Cure First – 2020

- Screen: 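Knock-downs altering ovarian cancer cell survival with or without PARP inhibitor rucaparib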 (primary screen)
- Cells: human ovarian carcinoma lines grown from tumours: OCI-P5x (papillary serous) and OCI-C5x (clear cell)
- Reagent: siRNA pool against human genes, 1.25 pmol siRNA per well
- Timing: 72 h or 96 h, depending on the cell culture
- Conditions: rucaparib 20 µM (about IC30) or vehicle, present until read-out
- Rucaparib or vehicle: Vehicle
- Cell line: OCI-P5x (serous)
- Measurement: 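ATP luminescence measured at 72 or 96 h according to the culture, then normalised and expressed as percent viability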
- Direction: viability, normalised: higher = more viable cells remaining
- Rule for the call: 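a well counts as a hit if its normalised viability is under 80 percent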
- Calls: active = viability under 80%; inactive = viability 80% or more
This is an unselected part of the about 2,100 reagents, in one setting of the screen. 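Calls flag viability under 80% in either arm, not effects specific to rucaparib; the reference for percent is not stated.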 Unmarked entries are inactive. Some reagents were tested in more than one well and are listed for each. Not stated in the record: the 100% reference.

Gene	technical replicate	viability, normalised (%)
PHF1	1	44.7 (active)
PHF1	2	44.9 (active)
PHF1	3	75.7 (active)
BRD8	1	63.6 (active)
BRD8	2	81.9
BRD8	3	73.7 (active)
PAPSS1	1	65.9 (active)
PAPSS1	2	76.6 (active)
PAPSS1	3	71.5 (active)
HIF1A	1	78.4 (active)
HIF1A	2	91.6
HIF1A	3	77.2 (active)
CAMK2D	1	78.4 (active)
CAMK2D	1	80.5
CAMK2D	2	95
CAMK2D	2	78.1 (active)
CAMK2D	3	92
CAMK2D	3	80.7
PARP1	1	67.8 (active)
PARP1	1	57.7 (active)
PARP1	2	58 (active)
PARP1	2	56.4 (active)
PARP1	3	64.9 (active)
PARP1	3	63.9 (active)
MTREX	1	55.4 (active)
MTREX	2	61 (active)
MTREX	3	66.8 (active)
ZNF451	1	73.4 (active)
ZNF451	2	59.3 (active)
ZNF451	3	128
ITGA4	1	37.6 (active)
ITGA4	2	50.5 (active)
ITGA4	3	96.6
STK39	1	67.6 (active)
STK39	2	57.9 (active)
STK39	3	71.9 (active)
PDE2A	1	73.3 (active)
PDE2A	2	82.2
PDE2A	3	78.8 (active)

6 entries from above, arranged by “viability, normalised (%)”, lowest first.
Gene	technical replicate	viability, normalised (%)
PAPSS1	1	65.9 (active)
PAPSS1	3	71.5 (active)
BRD8	3	73.7 (active)
PAPSS1	2	76.6 (active)
HIF1A	1	78.4 (active)
BRD8	2	81.9
